# According to PubChem BioAssay AID540276 (National Center for Advancing Translational Sciences (NCATS), 2011):
# Values joined by “and” are separate entries in the source; they are usually repeats but may differ in a detail not shown here. Equal entries are not always repeated. In all, about 300,000 compounds went through this assay and about 5,400 (1.8%) were called active. This list was built around the results that the source calls inconclusive (neither active nor inactive); the mix of calls is not that of the screen. Calls follow the shape of the full dose curve; tested in HEK293 cells. Potencies beside an inconclusive call are fits to weak or partial responses and may not hold up.
# Test: qHTS for inhibitors of binding or entry into cells for Marburg Virus
# Settings: Marburg virus pseudotyped entry inhibition, cell reporter; activity change, negative = inhibition: at 37.8 µM (top of the series) unless noted
# % is scaled to controls: 0 for no effect and ±100 for the full control effect; potency is read from the fitted curve at half-maximal effect.
Structure (SMILES),"activity change, negative = inhibition",Potency
COc1ccc(-c2nc3ccccc3n3c(-c4ccccc4)c4c(=O)n(C)c(=O)n(C)c4c23)cc1,inactive: 14.2% [at 46.1 µM],–
COc1ccc(-n2nc3c(c2NC(=O)CCl)CSC3)cc1,–,"inconclusive: 12.6 µM [inhibitor, partial curve, poor fit]"
COc1cccc(-n2cc(C(=O)NC(C)C)c3ccccc3c2=O)c1,inactive: 24.9%,–
CN(c1cc2c(c3c1ccn3C)C1CCC2C1)C1CCCCC1 (centres undefined),–,"inconclusive: 0.791 µM [inhibitor, full curve, poor fit]"
COc1ccc(-c2cc(C(=O)N3CCN(c4ccccc4F)CC3)c3ccccc3n2)c(OC)c1,–,"inconclusive: 35.5 µM [inhibitor, single point]"
CC(=O)N1N=C(c2cccnc2)OC1c1ccc(C(C)C)cc1 (centres undefined),–,"inconclusive: 1.12 µM [inhibitor, partial curve, poor fit]"
COc1ccc(-c2nnn(CC(=O)N(CCO)C(C(=O)NC3CCCC3)c3ccc(F)cc3)n2)cc1 (centres undefined),–,"inconclusive: 25.9 µM [inhibitor, single point]"
O=c1c2ccccc2nc(-c2ccco2)n1-c1ccccn1,–,"inconclusive: 3.55 µM [activator, partial curve, poor fit]"
COCCN1C(=O)CC[C@@]23C1=NC(C(=O)OC)=C(C(=O)OC)[C@@H]2N(C)c1ccccc13,–,"inconclusive: 0.168 µM [inhibitor, full curve, poor fit]"
Cc1cc(N2CCOCC2)n2ncc(-c3ccccc3)c2n1,–,"inconclusive: 11.6 µM [inhibitor, partial curve, poor fit]"
Cc1cccc(-n2c(O)c(C=Nc3ccccc3N)c(=O)[nH]c2=O)c1,–,"inconclusive: 13 µM [inhibitor, partial curve, poor fit]"
CSc1ccc(S(=O)(=O)NC(C)c2ccccc2)cc1 (centres undefined),inactive: -16.2% [at 46.1 µM],–
Cc1ccc(/C(N)=N/OC(=O)c2ccc(Cl)cc2Cl)cc1,–,active: 7.08 µM
CCCN1CCN(C2CCCCC2NS(=O)(=O)c2ccccc2)CC1 (centres undefined),–,"inconclusive: 35.5 µM [inhibitor, single point]"
COc1ccc(C(=O)Nc2ccccc2C(=O)Nc2cccnc2)cc1,–,"inconclusive: 5.62 µM [activator, single point]"
O=S1(=O)N=C(N/N=C/c2ccc(Br)o2)c2ccccc21,inactive: -1.51% [at 46.1 µM],–
CC(C)(C)c1ccc(C(=O)N2CCC(=O)N(C(CO)Cc3ccccc3)CC2)cc1 (centres undefined),inactive: -30.4%,–
O=C(COC(=O)C1=COCCO1)NC1CCCCC1,inactive: 26.6%,–
O=C(CCCSc1ccc(Cl)cc1)Nc1ccccc1O,–,"inconclusive: 35.5 µM [inhibitor, single point]"
Cc1ccc(-n2nnnc2SC(C)C(=O)NCC(=O)Nc2ccc(F)c(F)c2F)c(C)c1 (centres undefined),–,"inconclusive: 35.5 µM [inhibitor, single point]"
Cc1ccc(NC(=O)CCCNC(=O)c2ccc(Cl)cc2)c(O)c1,–,"inconclusive: 4.47 µM [activator, single point]"
NS(=O)(=O)c1ccc(NC(=O)c2cc(-c3cc(Cl)ccc3O)n[nH]2)cc1,–,"inconclusive: 12.6 µM [inhibitor, single point]"
CCCCCCC1CCC(C(=O)NC(C(=O)O)C(C)C)CC1 (centres undefined),inactive: -27% [at 46.1 µM],–

# Molecules listed so far that have fluorine, in the order listed:
Structure (SMILES),"activity change, negative = inhibition",Potency
COc1ccc(-c2cc(C(=O)N3CCN(c4ccccc4F)CC3)c3ccccc3n2)c(OC)c1,–,"inconclusive: 35.5 µM [inhibitor, single point]"
COc1ccc(-c2nnn(CC(=O)N(CCO)C(C(=O)NC3CCCC3)c3ccc(F)cc3)n2)cc1 (centres undefined),–,"inconclusive: 25.9 µM [inhibitor, single point]"
Cc1ccc(-n2nnnc2SC(C)C(=O)NCC(=O)Nc2ccc(F)c(F)c2F)c(C)c1 (centres undefined),–,"inconclusive: 35.5 µM [inhibitor, single point]"

# More compounds follow.

Structure (SMILES),"activity change, negative = inhibition",Potency
COc1ccc(O)c(C(=O)CC(=O)c2cccnc2)c1,–,"inconclusive: 5.62 µM [activator, single point]"
Cc1cc(NC(=S)N(CCN2CCCCC2)Cc2ccco2)ccc1Cl,–,"inconclusive: 14.1 µM [inhibitor, single point]"
O=C(c1ccc(S(=O)(=O)Nc2cccc(C(F)(F)F)c2)cc1)N1CCC1,–,"inconclusive: 5.62 µM [inhibitor, full curve]"
CCCCN(CCCC)C(=O)c1cn(CC)c2cc(N3CCN(C)CC3)c(F)cc2c1=O,–,"inconclusive: 17.8 µM [inhibitor, partial curve, poor fit]"
CCNC(=O)C(=O)Nc1ccc2c(c1)N(S(=O)(=O)c1cccs1)CCC2,–,"inconclusive: 35.5 µM [inhibitor, partial curve, poor fit]"
c1ccc2c(c1)CCN(c1ncnc3c1[nH]c1ccccc13)C2,–,"inconclusive: 11.6 µM [inhibitor, partial curve]"
CCCCOc1ccc(C(=O)N/C(=C/C=C/c2ccccc2)C(=O)N2CCOCC2)cc1,–,"inconclusive: 14.1 µM [inhibitor, single point]"
COc1ccc(NS(=O)(=O)c2cc(NC(=O)c3cccc(OCc4c(C)noc4C)c3)ccc2OC)cc1,–,"inconclusive: 14.6 µM [inhibitor, partial curve]"
CCC(C(=O)Nc1ccc2c(c1)OCCO2)n1c(=O)[nH]c2ccccc2c1=O (centres undefined),inactive: 15.2% [at 46.1 µM],–
O=C(Nc1nccs1)c1c(O)c2c([nH]c1=O)CCCC2,–,"inconclusive: 2.82 µM [activator, full curve, poor fit]"
CC12CCC(C(=O)N(NC(=O)c3cccnc3)C1=O)C2(C)C (centres undefined),inactive: 8.14%,–
CN(Cc1ccccc1)Cc1ccccc1C(O)c1ccccc1 (centres undefined),–,"inconclusive: 7.94 µM [inhibitor, partial curve, poor fit]"
Cc1ccc(C(=O)NCCc2ccncc2)cc1,inactive: 6.02%,–
Nc1ccc(O)cc1C(=O)OCC(=O)c1ccc(C2CCCCC2)cc1,–,"inconclusive: 17.8 µM [inhibitor, partial curve, poor fit]"
CCCOc1ccc(CSc2n[nH]c(C)n2)cc1,–,"inconclusive: 0.316 µM [activator, full curve, poor fit]"
C=CC[C@](C)(O)c1ccccc1,–,inactive
COc1ccccc1NC(=O)Cn1c(=O)n(-c2ccc(C)cc2)c(=O)c2c1cnn2C,inactive: 5.97% [at 46.1 µM],–
CCOc1ccc(NC(=O)c2oc3ccccc3c2NC(=O)c2cc3ccccc3o2)cc1,–,"inconclusive: 25.1 µM [activator, single point]"
C=CCc1ccccc1OCCNCc1ccccc1,–,"inconclusive: 11.2 µM [inhibitor, single point]"
COc1ccc2cnn(-c3ccc(OC(F)(F)F)cc3)c(=O)c2c1OC,–,"inconclusive: 5.62 µM [activator, single point]"
CN(C(=O)COc1coc(CN2CCN(c3ccccc3)CC2)cc1=O)c1ccccc1,–,"inconclusive: 1.26 µM [activator, single point]"
CC(C)CCNC(=O)CN(C(=O)CCC(=O)Nc1ccccn1)c1ccc2c(c1)OCCO2,inactive: -24%,–
CCOc1ccc(CN(C)CC(=O)Nc2ccc([N+](=O)[O-])cc2Cl)cc1,inactive: -4.8%,–

Structure (SMILES),"activity change, negative = inhibition",Potency
Cc1nc2c(C)cccn2c1/C(O)=C1\C(=O)C(=O)N(CCN(C)C)C1c1cccs1 (centres undefined),inactive: 5.64% [at 46.1 µM],–
Cc1ccc(CNC(=O)c2ccc(CS(=O)(=O)c3ccccc3C)o2)cc1,–,inactive
Cc1nn(-c2ccc(Cl)cc2)c2sc(C(=O)N3CCN(c4ccccn4)CC3)cc12,–,inactive
CN1C2CCC1/C(=C\c1ccc(F)cc1)C(=O)/C2=C/c1ccc(F)cc1,–,"inconclusive: 10 µM [inhibitor, partial curve, poor fit]"
Nn1c(SCC(=O)Nc2ccc3c(c2)OCO3)nnc1-c1cccc(Cl)c1,inactive: 4.59%,–
C[C@H]1C(=O)N(C)CCN1Cc1cn(C)nc1-c1ccc(Oc2ccccc2)cc1,–,"inconclusive: 35.5 µM [inhibitor, single point]"
CC1(C)CCC[C@]2(C)C(CS(=O)c3ccccc3)=C(C=O)CC[C@@H]12 (some centres undefined),–,"inconclusive: 10 µM [inhibitor, partial curve, poor fit]"
CCn1c(=S)sc2c(=O)n(CC(=O)Nc3ccc(Cl)cc3)c(C)nc21,–,"inconclusive: 28.2 µM [inhibitor, single point]"
CCC(C)c1ccc(NC(=O)CC(C)=O)cc1 (centres undefined),–,"inconclusive: 2.91 µM [activator, partial curve]"
CC(=O)Nc1ccc2oc(-c3cc(F)c(F)cc3Cl)nc2c1,inactive: -2.97%,–
O=C(NCc1ccccc1F)C1CCCN(C(=O)Nc2ccc(F)cc2)C1 (centres undefined),–,"inconclusive: 14.1 µM [inhibitor, partial curve, poor fit]"
Cc1cc2[nH]ncc2cc1NC(=S)NC(=O)c1ccccc1,–,"inconclusive: 29.1 µM [inhibitor, single point]"
O=C(CCC1CCCCC1)NCc1ccc(F)cc1,inactive: -17.4%,–
O=C(CCNC(=O)c1ccccc1Cl)Nc1cc(C(F)(F)F)ccc1N1CCCC1,–,"inconclusive: 12.6 µM [inhibitor, single point]"
C/C(=C\C(=O)c1ccccc1)Nc1ccc(O)cc1,–,"inconclusive: 11.2 µM [inhibitor, single point]"
CC1(C)CC(N2CCN(c3ccccc3)CC2)=CC(=[N+]2CCCC2)C1,–,"inactive and inconclusive: 3.66 µM [inhibitor, partial curve, poor fit]"
COc1ccc(C)cc1Nc1nc(N)c2cc(OC)c(OC)cc2n1,–,"inconclusive: 11.2 µM [inhibitor, partial curve, poor fit] and inconclusive: 35.5 µM [inhibitor, partial curve, poor fit]"
CC(=O)c1cccc(NC(=O)c2nc(-c3ccccc3)n(-c3ccccc3C)n2)c1,inactive: -1.82% [at 46.1 µM],–
N#Cc1ccc(-c2ccc(OCC(=O)NN=Cc3ccncc3)cc2)cc1,inactive: 6.37%,–
C=CCNC(=O)C1CCC(=O)N1S(=O)(=O)c1ccc(C)cc1 (centres undefined),inactive: 9%,–
O=C(Nc1ccc(Cl)c(Cl)c1)c1csc(-c2ccccc2)n1,inactive: 12.4%,–
CCN(CC)CC(O)CN1c2ccccc2Sc2ccccc21 (centres undefined),–,active: 3.16 µM
COc1cccc(C2SCC(=O)N2c2cccc(C)c2)c1OC (centres undefined),–,"inconclusive: 35.5 µM [activator, single point]"
